Data as given in PubChem BioAssay AID1671195 (Yale University, 2021).

Screen: 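Knockdowns that increase or decrease uptake of fluorescent LDL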 (primary screen)
Cells: human Huh7 hepatoma cells
Reagents: siRNA pool against human genes, 18 nM
Duration: about 2 to 2.5 days of knockdown, then 8 h LDL uptake
Conditions: DiI-labelled LDL at 30 µg/ml for 8 h, in lipoprotein-deficient serum medium
Detection: 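Per-cell DiI-LDL intensity by automated imaging; well means scaled to the plate median and given as a robust z-score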
Direction: robust z-score: higher = more LDL uptake after knockdown
Active means: 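a gene counts as active if at least two replicate z-scores exceed ±2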
This is a random part of about 22,000 reagents. Of all reagents, about 1,510 (6.9%) were called active. 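Active includes knockdowns raising or lowering LDL uptake; positive z-scores mean more uptake, negative mean less.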 Entries without a mark were called inactive. No sequences are given here.

For NSUN2 (GeneID 54888), what does the deposit list?
robust z-score, replicate 1: 0.651; robust z-score, replicate 2: -0.563; robust z-score, replicate 3: 0.925

What is on record for LOC346887 (retired record) (GeneID 346887)?
robust z-score, replicate 1: 0.017; robust z-score, replicate 2: 2.03; robust z-score, replicate 3: -0.351

Which result is listed for AP3D1 (GeneID 8943)?
robust z-score, replicate 1: 1.51; robust z-score, replicate 2: 0.13; robust z-score, replicate 3: 0.536

For UBE3D (GeneID 90025), what was measured?
robust z-score, replicate 1: -0.45; robust z-score, replicate 2: -0.476; robust z-score, replicate 3: 0.149

For HMGN2P46 (GeneID 283651), what does the deposit list?
robust z-score, replicate 1: -1.05; robust z-score, replicate 2: -0.903; robust z-score, replicate 3: -1.22

What did the screen give for HCN2 (GeneID 610)?
robust z-score, replicate 1: 1.01; robust z-score, replicate 2: 0.691; robust z-score, replicate 3: 0.587

2 entries from above, reformatted:
gene symbol | robust z-score, replicate 1 | robust z-score, replicate 2 | robust z-score, replicate 3
AP3D1 (GeneID 8943) | 1.51 | 0.13 | 0.536
UBE3D (GeneID 90025) | -0.45 | -0.476 | 0.149

Additional reagents follow:
How did the screen score CTDP1 (GeneID 9150)?
robust z-score, replicate 1: 2.75 (active); robust z-score, replicate 2: 2.8; robust z-score, replicate 3: 3.39

With LOC440911 (retired record) (GeneID 440911), how do the results read?
robust z-score, replicate 1: 2.02 (active); robust z-score, replicate 2: 2.31; robust z-score, replicate 3: 2.67

For DGKI (GeneID 9162), how do the results read?
robust z-score, replicate 1: 0.0906; robust z-score, replicate 2: -0.71; robust z-score, replicate 3: -0.18

With CES5A (GeneID 221223), how do the results read?
robust z-score, replicate 1: 0.0504; robust z-score, replicate 2: 0.484; robust z-score, replicate 3: 0.838

What did the screen give for LOC391437 (retired record) (GeneID 391437)?
robust z-score, replicate 1: -0.258; robust z-score, replicate 2: -0.68; robust z-score, replicate 3: -0.643

For ZNF696 (GeneID 79943), what was measured?
robust z-score, replicate 1: -1.4; robust z-score, replicate 2: -0.766; robust z-score, replicate 3: -0.881
